Publication doi:10.1101/2025.08.09.669463
No constants are given. Whether binding was seen depends on the method and setting. Binding seen in cells or lysates may run through a third protein. Where a sequence is shown, tags or fusion partners need not be part of it.

Target: T1, AtATG8A, recombinant, for GST pull-down (Arabidopsis thaliana) (UniProt Q8LEM4)
T1 sequence: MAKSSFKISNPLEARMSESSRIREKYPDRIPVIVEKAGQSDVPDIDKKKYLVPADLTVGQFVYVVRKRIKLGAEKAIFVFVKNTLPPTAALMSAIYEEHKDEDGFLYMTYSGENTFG
Test: pull-down

B1: AtVCS (Arabidopsis EDC4 homolog), recombinant (protein, UniProt Q9LTT8 1-1344)
chain: MASSPGNTNPHNTPPFDLGILFKPSSNPYPPPAASYPPPTGPFLHNQYDQQHYAPPGISAQPSPVTQQQQDVSSSSAATNLHPQRTLSYPTPPLNLQSPRSNHNPGTHILALLNNTNNGAPVANQEPSHQLPVVNHNEIARSFPGGSGPIRVPSCKLPKGRRLIGEHAVYDVDVRLQGEIQPQLEVTPITKYGSDPQLVVGRQIAVNKVYICYGLKGGNIRVLNINTALRSLFRGHSQRVTDMAFFAEDVDMLASVSLDGKVFVWKISEGSEGEDQPQITGKIVLALQILGEEDTKHPRVCWHCHKQEILVVSIGKHVLRIDTTKVGRGEVFSAEAPLQCPLDKLIDGVQIVGKHDGEVTDLSMCQWMTTRLVSSSVDGTIKIWQDRKAQPLVVLRPHDGHPVSSATFVTSPERPDHIILITGGPLNREMKIWVSAGEEGWLLPADAESWRCTQTLDLKSSTEPRAEEAFFNQVIALSEAGLLLLANAKRNALYAVHLDYGSSPVGTRMDYLSEFTVTMPILSFIGTNDPPEEPIVKVYCVQTLAIQQYTLDLCLCLPPPIENMGLEKSDSSVSREANLVEGMSEPSGLKPTDLPSVDSVPKPSIIVNRSESANKLSFPSAEATSQAIVPPNGEPKTSGLPSQTSGAGSAYATLPQLPLSPRLSSKLSGYHTPVEAIEPVIPHHELGGKTPSADYSVDRQMDAVGERNLDVSSVEEISRSKDSNVTPDDDVSGMRSPSAFFKHPTHLVTPSEILMGVSSAEASITTEDRRDRDANIQDVNNDPRDTEVEVKEISEARSTQNGEINDHDETENCTSENREKVFCSQVSNLSTEMARDCYPSTEGTFIPGESKAYGQPIKAGDESGVDSRGGPAKLLKGKKQKAKNSQGPGLSSTSSNVANLADSFNEQSQSLSHPMTDLLPQLLAMQETMNQVMASQKEMQRQLSNAATGPIGKESKRLEVALGRMIEKSSKSNADALWARIQEETVKNEKALRDHAQQIVNATTNFMSKELNAMFEKTIKKELAAIGPALARSVVPVIEKTVSSAITESFQRGIGDKAVNQLDKSVNIKLEATVARQIQAQFQTSGKQALQEGLRSSVESSVIPSFEKACKAMFDQIDSAFQKGIAEHTNAAQQRFDSGHSQLAHTLKESITSASSVAQALSRELAETQRNLLALAAAGANSGGSNSLVTQLSGGPLGALLEKVEAPMDPTTELSRLISERKYEESFTSALQRSDVSIVSWLCSQVDLRGLLAMNPLPLSQGVLLSLLQQLACDISKDTSRKLAWMTDVVAAINPSDQMIAVHARPIFEQVYQILHHHRNAPGSDVSAIRLIMHVINSMLMGCK
  binding: no binding
